For at least one entry, the source does not settle the construct or the ends of the probe. For part of these data: At least one verdict rests on a figure or table, not on a statement of the authors.
Assays:
RPA S384D (Homo sapiens) [1] = assay: HDX-MS; conditions: recombinant protein; single-stranded DNA
[2] = system: RPA (wild type) (Homo sapiens); assay: HDX-MS; conditions: recombinant protein; single-stranded DNA
RPA S384D (Homo sapiens) [3] = assay: stopped-flow Trp fluorescence (koff/kon); conditions: kon 1.9e10 M-1 s-1, koff 65 s-1 as printed; Stopped flow: 30 mM HEPES pH 7.8, 100 mM KCl, 5 mM MgCl2, 6% glycerol, 1 mM b-ME, 25 C; recombinant protein; single-stranded DNA

Chains of the proteins cited; added tags and fusions are not shown. Chains listed by the source or under a name are the forms on record and can include a tag or linker.
RPA S384D (Homo sapiens), one chain, as listed by the source S384D, chain 1 of 3: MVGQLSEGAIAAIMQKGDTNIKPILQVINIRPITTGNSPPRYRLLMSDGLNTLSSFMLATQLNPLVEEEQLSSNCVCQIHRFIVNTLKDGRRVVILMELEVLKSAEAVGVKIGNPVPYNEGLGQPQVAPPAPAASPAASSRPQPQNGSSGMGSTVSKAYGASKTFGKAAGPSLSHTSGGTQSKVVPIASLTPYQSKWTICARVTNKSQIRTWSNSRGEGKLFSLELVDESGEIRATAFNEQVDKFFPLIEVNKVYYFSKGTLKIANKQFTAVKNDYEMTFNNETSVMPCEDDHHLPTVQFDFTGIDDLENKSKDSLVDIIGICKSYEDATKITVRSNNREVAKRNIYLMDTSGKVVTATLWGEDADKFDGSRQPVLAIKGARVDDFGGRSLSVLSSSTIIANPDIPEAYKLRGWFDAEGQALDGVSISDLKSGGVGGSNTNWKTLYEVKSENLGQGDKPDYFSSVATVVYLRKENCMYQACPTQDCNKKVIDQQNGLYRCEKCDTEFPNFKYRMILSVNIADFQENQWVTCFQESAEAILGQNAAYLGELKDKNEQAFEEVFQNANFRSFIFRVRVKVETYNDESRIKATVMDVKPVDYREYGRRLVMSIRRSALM
RPA (wild type) (Homo sapiens), one chain, as listed by the source, chain 1 of 3: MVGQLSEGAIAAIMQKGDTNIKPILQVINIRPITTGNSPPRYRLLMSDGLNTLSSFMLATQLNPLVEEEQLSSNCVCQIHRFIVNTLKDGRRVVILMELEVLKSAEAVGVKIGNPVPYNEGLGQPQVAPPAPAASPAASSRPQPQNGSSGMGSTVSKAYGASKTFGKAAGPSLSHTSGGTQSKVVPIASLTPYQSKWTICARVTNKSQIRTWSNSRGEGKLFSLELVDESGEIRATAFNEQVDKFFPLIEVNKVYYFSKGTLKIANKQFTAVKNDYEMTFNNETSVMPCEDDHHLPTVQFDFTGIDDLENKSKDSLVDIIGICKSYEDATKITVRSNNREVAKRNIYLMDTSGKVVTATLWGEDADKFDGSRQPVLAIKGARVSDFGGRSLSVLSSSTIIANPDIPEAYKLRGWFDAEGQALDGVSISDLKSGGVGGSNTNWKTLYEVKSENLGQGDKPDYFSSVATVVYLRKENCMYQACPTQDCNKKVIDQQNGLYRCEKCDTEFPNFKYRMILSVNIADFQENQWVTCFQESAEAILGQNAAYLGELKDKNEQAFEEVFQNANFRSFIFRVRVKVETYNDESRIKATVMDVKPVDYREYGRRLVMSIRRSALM

Sequence: TTTTTTTTTTTTTTTTTTTTTTTTTTTTTTTTTTT [(dT)35]
- binding result (RPA S384D (Homo sapiens) [1]): binds
- binding result [2]: binds
- Kd (RPA S384D (Homo sapiens) [3]): 3.4 nM
